PubChem BioAssay AID1259254 – NCATS, 2017
The whole screen tested about 59,000 reagents; shown is an unselected part. Over the whole deposit, about 1,550 (2.6%) were called active. 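G2 share is only a proxy for re-replication; each gene was hit by three separate siRNAs, and active genes were retested.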 The numbers tell different reagents against one gene apart. Further read-outs or replicates are left out here. Not stated in the record: the amount of reagent.

Assay: 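Genome-wide screen for genes that prevent DNA re-replication in cancer cells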 (primary screen)
System: human HCT116 colorectal cancer cells
Knock-down reagent: single siRNA against human genes
Timing: 3 days
Measured: 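Nuclei stained with Hoechst and imaged; cell-cycle phase assigned by DNA content; G2 share scaled per plate, non-targeting siRNA 0%, GMNN siRNA 100%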
Direction: G2 robust z-score and G2 cells, % of GMNN control: higher = more G2 cells, more excess DNA replication
Active means: 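Active siRNAs have a G2 robust z of 5 or more median absolute deviations over the median, which in these data means about 38% or higher of GMNN control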

For CRYBB3 (GeneID 1417) #1, how do the results read?
G2 robust z-score: 0.533; G2 cells, % of GMNN control: 6.72; Call: inactive

What is on record for CRYBB3 (GeneID 1417) #2?
G2 robust z-score: -0.24; G2 cells, % of GMNN control: 1.28; Call: inactive

For CRYBB3 (GeneID 1417) #3, what was measured?
G2 robust z-score: -0.392; G2 cells, % of GMNN control: 0.21; Call: inactive

With THOC6 (GeneID 79228) #1, how do the results read?
G2 robust z-score: 0.69; G2 cells, % of GMNN control: 7.83; Call: inactive

For THOC6 (GeneID 79228) #2, what does the deposit list?
G2 robust z-score: 3.08; G2 cells, % of GMNN control: 24.6; Call: inactive

For THOC6 (GeneID 79228) #3, how do the results read?
G2 robust z-score: 0.538; G2 cells, % of GMNN control: 6.75; Call: inactive

What is on record for PXDN (GeneID 7837) #1?
G2 robust z-score: -0.651; G2 cells, % of GMNN control: -1.61; Call: inactive

With PXDN (GeneID 7837) #2, what was measured?
G2 robust z-score: -0.0187; G2 cells, % of GMNN control: 2.84; Call: inactive

What is on record for PXDN (GeneID 7837) #3?
G2 robust z-score: 1.54; G2 cells, % of GMNN control: 13.8; Call: inactive

With TBC1D22A-AS1 (GeneID 642757) #1, what was measured?
G2 robust z-score: 0.35; G2 cells, % of GMNN control: 5.43; Call: inactive

With TBC1D22A-AS1 (GeneID 642757) #2, what was measured?
G2 robust z-score: -0.283; G2 cells, % of GMNN control: 0.977; Call: inactive

What did the screen give for TBC1D22A-AS1 (GeneID 642757) #3?
G2 robust z-score: 0.932; G2 cells, % of GMNN control: 9.53; Call: inactive

3 consecutive reagents from above:
THOC6 (GeneID 79228) #3: G2 robust z-score = 0.538; G2 cells, % of GMNN control = 6.75; Call = inactive
PXDN (GeneID 7837) #1: G2 robust z-score = -0.651; G2 cells, % of GMNN control = -1.61; Call = inactive
PXDN (GeneID 7837) #2: G2 robust z-score = -0.0187; G2 cells, % of GMNN control = 2.84; Call = inactive

The listing continues:
For LRP2BP (GeneID 55805) #1, what was measured?
G2 robust z-score: -1.35; G2 cells, % of GMNN control: -6.56; Call: inactive

What did the screen give for LRP2BP (GeneID 55805) #2?
G2 robust z-score: 0.33; G2 cells, % of GMNN control: 5.29; Call: inactive

What did the screen give for LRP2BP (GeneID 55805) #3?
G2 robust z-score: 0.0667; G2 cells, % of GMNN control: 3.44; Call: inactive

For RAB5C (GeneID 5878) #1, how do the results read?
G2 robust z-score: -0.524; G2 cells, % of GMNN control: -0.716; Call: inactive

What is on record for RAB5C (GeneID 5878) #2?
G2 robust z-score: 2.3; G2 cells, % of GMNN control: 19.2; Call: inactive

How did the screen score RAB5C (GeneID 5878) #3?
G2 robust z-score: 3.02; G2 cells, % of GMNN control: 24.2; Call: inactive

Which result is listed for YAF2 (GeneID 10138) #1?
G2 robust z-score: 0.436; G2 cells, % of GMNN control: 6.04; Call: inactive

How did the screen score YAF2 (GeneID 10138) #2?
G2 robust z-score: 1.48; G2 cells, % of GMNN control: 13.4; Call: inactive

How did the screen score YAF2 (GeneID 10138) #3?
G2 robust z-score: 4.79; G2 cells, % of GMNN control: 36.7; Call: inactive

How did the screen score RPL13AP6 (GeneID 644511) #1?
G2 robust z-score: 2.36; G2 cells, % of GMNN control: 19.6; Call: inactive

For RPL13AP6 (GeneID 644511) #2, what does the deposit list?
G2 robust z-score: 1.23; G2 cells, % of GMNN control: 11.6; Call: inactive

For RPL13AP6 (GeneID 644511) #3, what does the deposit list?
G2 robust z-score: 1.16; G2 cells, % of GMNN control: 11.2; Call: inactive

How did the screen score ALPK2 (GeneID 115701) #1?
G2 robust z-score: 1.65; G2 cells, % of GMNN control: 14.6; Call: inactive

With ALPK2 (GeneID 115701) #2, what does the deposit list?
G2 robust z-score: 1.77; G2 cells, % of GMNN control: 15.4; Call: inactive

What is on record for ALPK2 (GeneID 115701) #3?
G2 robust z-score: -1.15; G2 cells, % of GMNN control: -5.14; Call: inactive

Which result is listed for DKK4 (GeneID 27121) #1?
G2 robust z-score: -1.18; G2 cells, % of GMNN control: -5.31; Call: inactive

For DKK4 (GeneID 27121) #2, what was measured?
G2 robust z-score: 2.24; G2 cells, % of GMNN control: 18.8; Call: inactive

With DKK4 (GeneID 27121) #3, what was measured?
G2 robust z-score: -0.66; G2 cells, % of GMNN control: -1.68; Call: inactive
